# Laboratory results: patent US5340802A, “Peptide analog type-B CCK receptor ligands” (Abbott Laboratories, priority 1993, dated 1994)
# For part of these data: At least one peptide structure holds a part that was inferred or is arguable (an end, a ring closure or a residue). For part of these data: For at least one compound, name, drawing or mass did not settle the structure.
# Assays:
# VTA neurons = experiment: Response of VTA neurons to ethanol (brain slices, extracellular recording); design: species or system Sprague-Dawley rats; details: for % Increase in EtOH Potency: ethanol 80 to 160 mM
# Type-B CCK receptors = molecular target: T1, Type-B CCK receptors (Cavia porcellus, UniProt H0VZC5); experiment: Radioligand binding ([125I]BH-CCK-8) in guinea pig cerebral cortical membrane preparations; details: cortical membranes, 30° C., 150 minutes, read-out: IC50 (nM) cortex (Type B)
# T1 construct: Cortical and pancreatic membranes were prepared as described; from tissue; host or cells: guinea pig cerebral cortex membranes
# T1 sequence (H0VZC5 1-426): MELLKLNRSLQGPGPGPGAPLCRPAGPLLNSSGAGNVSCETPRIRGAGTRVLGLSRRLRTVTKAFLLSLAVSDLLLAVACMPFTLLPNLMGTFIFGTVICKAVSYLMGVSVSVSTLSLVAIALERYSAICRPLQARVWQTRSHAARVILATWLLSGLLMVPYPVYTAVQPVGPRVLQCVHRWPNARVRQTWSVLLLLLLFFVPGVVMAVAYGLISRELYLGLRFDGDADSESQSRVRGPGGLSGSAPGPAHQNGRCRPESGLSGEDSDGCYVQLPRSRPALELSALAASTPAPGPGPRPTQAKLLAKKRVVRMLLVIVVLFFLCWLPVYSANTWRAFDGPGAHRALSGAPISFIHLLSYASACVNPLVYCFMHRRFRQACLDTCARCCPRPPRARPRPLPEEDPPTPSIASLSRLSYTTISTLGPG
# Method: CCK-8 (Asp-Tyr(SO3 H)-Met-Gly-Trp-Met-Asp-Phe-NH2), bestatin and phosphoramidon were purchased from Peptide International (Louisville, Ky.). EGTA, HEPES, BSA were purchased from Sigma Chemical Co. (St. Louis, Mo.). […] Male guinea pigs, 250 to 325 g, were obtained from Scientific Small Animal Laboratory and Farm (Arlington Heights, Ill.). Collagenase, code CLSPA, was purchased from Worthington (Frehold, N.J.).
# Cortical and pancreatic membranes were prepared as described (Lin and Miller; J. Pharmacol. Exp. Ther., 1985, 232:775-780). In brief, pancreas and cortex were removed and rinsed with ice-cold saline. Visible fat and connective tissues were removed from the pancreas. Tissues were weighed and homogenized in approximately 25 mL of ice-cold 50 mM Tris-HCl buffer, pH 7.4 at 4° C. with a Brinkman Polytron for 30 seconds, setting 7. The homogenates were centrifuged for 10 minutes at 1075×g and the pellet was discarded. The supernantants were saved and centrifuged at 38,730×g for 20 minutes. The resultant pellets were rehomogenized in 25 mL of 50 mM Tris-HCl buffer with a Teflon-glass homogenizer, 5 up and down strokes. The homogenates were centrifuged again at 38,730×g for 20 minutes. […]
# To 1 mL Skatron polystyrene tubes were added 25 uL of test compounds, 25 uL of [^125 I]BH-CCK8 and 200 uL of membrane suspension. […] IC50 values were determined from the Hill analysis.
# Type-A CCK receptors = molecular target: T2, Type-A CCK receptors (Cavia porcellus, UniProt Q63931); experiment: Radioligand binding ([125I]BH-CCK-8) in guinea pig pancreatic membrane preparations; details: pancreatic membranes, 37° C., 150 minutes, read-out: IC50 (nM) Pancreas (Type A)
# T2 construct: Cortical and pancreatic membranes were prepared as described; from tissue; host or cells: guinea pig pancreas membranes
# T2 sequence (Q63931 1-430): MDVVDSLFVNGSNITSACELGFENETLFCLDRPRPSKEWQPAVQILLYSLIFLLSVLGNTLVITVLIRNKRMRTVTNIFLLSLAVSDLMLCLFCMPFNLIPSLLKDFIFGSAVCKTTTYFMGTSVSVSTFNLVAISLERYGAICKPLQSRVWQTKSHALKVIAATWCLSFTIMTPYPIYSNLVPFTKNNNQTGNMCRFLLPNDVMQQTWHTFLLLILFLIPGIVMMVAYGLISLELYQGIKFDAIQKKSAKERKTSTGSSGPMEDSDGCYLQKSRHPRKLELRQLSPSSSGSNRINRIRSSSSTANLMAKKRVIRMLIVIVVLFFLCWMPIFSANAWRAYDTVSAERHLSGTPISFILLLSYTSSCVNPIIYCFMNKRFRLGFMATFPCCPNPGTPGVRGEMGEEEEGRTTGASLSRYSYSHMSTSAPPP
Compound,% Increase in EtOH Potency (VTA neurons; compound concentration 50 nM) [%],% Increase in EtOH Potency (VTA neurons; compound concentration 100-250 nM) [%],% Increase in EtOH Potency (VTA neurons; compound concentration 400-500 nM) [%],effect on the excitatory effect of ethanol on VTA neurons (VTA neurons; conclusion from Table 3),IC50 (Type-B CCK receptors) [nM],IC50 (Type-A CCK receptors) [nM]
"CCC[C@H]1CCN(C(=O)[C@@H]2Cc3c[nH]c4cccc(c34)CC(=O)N2)[C@@H]1C(=O)N[C@@H](CC(=O)O)C(=O)N[C@@H](Cc1ccccc1)C(N)=O [Example 30, Ctp-Tpp-Asp-Phe-NH2]",6.8,12.6,24,increases the excitatory effect of ethanol on VTA neurons,,
"CCCC[C@@H](C(=O)N[C@@H](CC(=O)O)C(=O)N[C@@H](Cc1ccccc1)C(N)=O)N1CC(=O)N[C@@H](Cc2c[nH]c3ccccc23)C1=O [Example 47, 2-[3-(1H-indol-3-ylmethyl)-2,5-dioxo-1-piperazinyl]caproyl-Asp-Phe-NH2]",,,,,33,> 10000
